Experimental findings from PubChem BioAssay (NCATS) are described below.

The list shows a part of the results. The main result of the screen is listed elsewhere. These columns were measured beside it and carry no call. The list favours compounds with an active or inconclusive main result. Words in brackets tell the shape of the fitted curve; partial curves, single points and poor fits give uncertain potencies.

The first assay in a line: qHTS Assay for Modulators of Human Peripheral Myelin Protein 22 (PMP22) Expression/Activity (AID 1967). The conditions noted are these: Cell-based PMP22 reporter, dual-color luciferase ratio; measured here: red reporter channel AC50; EF-alpha promoter control reporter in MSC80 mouse Schwann cells. Put shortly: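 Quantitative HTS in a mouse Schwann cell line expressing dual click beetle luciferases: Pmp22 promoter (green) and control EF-alpha promoter (red). After 24h treatment, corrected green/red signal ratio gave %Activity relative to untreated cells.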
Background: Quantitative high-throughput screening tests each substance at several concentrations.
For `NC(N)=NC(N)=Nc1cccc(Cl)c1`, the AC50 (usually the concentration giving half of the maximal activity seen) was 42.6 µM [falling, partial curve, poor fit].
On the same count and under the same terms, as for `NC(N)=Nc1nc(CSCC/C(N)=N/S(N)(=O)=O)cs1`, the figure is 95.3 µM [falling, single point]; as for `O=C(O)CN(CCOCCOCCN(CC(=O)O)CC(=O)O)CC(=O)O`, 95.3 µM [falling, single point].
Same read-out and setting: as for `O=C1NC(=O)C(c2ccccc2)(c2ccccc2)N1`, the figure is 84.9 µM [falling, single point].
Still for that read-out and setting: as for `COc1ccc(CN(CCN(C)C)c2ccccn2)cc1`, the figure is 95.3 µM [falling, single point].
As for `CN(C)CCC(c1ccc(Cl)cc1)c1ccccn1` (configuration not stated), the AC50 was 75.7 µM [falling, partial curve].

The next assay can be described thus: qHTS Validation Assay to Find Inhibitors of Chronic Active B-Cell Receptor Signaling (AID 485345). The conditions noted are these: ABC-DLBCL cells, chronic BCR signaling reporter; measured here: CBG/CBR ratio read-out. Put shortly: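 TMD8 ABC-DLBCL cells stably carrying doxycycline-inducible IkappaBalpha–green luciferase fusion plus unfused red luciferase; compounds 46 uM to 3 nM, 4 h at 37C with doxycycline. Corrected green/red luminescence ratio normalized to 10 uM MG-132 and basal cell wells; curves fitted.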
Regarding `COc1cc([C@@H]2c3cc4c(cc3[C@H](O)C3COC(=O)[C@@H]32)OCO4)cc(OC)c1OC` (some centres not stated), the concentration at half-maximal activity (AC50) was 0.0411 µM [falling, full curve].
On the same count and under the same terms, as for `C[C@H](Cc1ccccc1)Nc1ncnc2c1ncn2[C@@H]1O[C@H](CO)[C@@H](O)[C@H]1O`, the figure is 0.291 µM [falling, full curve]; as for `CCNC(=O)[C@H]1O[C@@H](n2cnc3c(N)nc(NCCc4ccc(CCC(=O)O)cc4)nc32)[C@H](O)[C@@H]1O`, 0.0411 µM [falling, full curve]; as for `CN1CCCC1CCOC(C)(c1ccccc1)c1ccc(Cl)cc1` (configuration not stated), 23.1 µM [falling, single point].
The same measure, in the same setting: as for `OC[C@H]1O[C@H](n2cnc3c(N[C@H]4CCC[C@@H]4O)ncnc32)[C@H](O)[C@@H]1O`, the figure is 7.31 µM [falling, partial curve].
The same measure, in the same setting: as for `CSc1nc(N)c2ncn([C@@H]3O[C@H](COP(=O)(O)OP(=O)(O)O)C(O)[C@H]3O)c2n1` (some centres not stated), the figure is 11.6 µM [falling, partial curve]; as for `CNCC[C@H](Oc1ccc(C(F)(F)F)cc1)c1ccccc1`, 16.4 µM [falling, single point]; as for `Nc1nc(SCc2ccc([N+](=O)[O-])cc2)c2ncn([C@@H]3O[C@H](CO)[C@@H](O)[C@H]3O)c2n1`, 0.0184 µM [falling, full curve].
For the compound `Nc1nc(Nc2ccccc2)nc2c1ncn2[C@@H]1O[C@H](CO)[C@@H](O)[C@H]1O`, the AC50 was 0.184 µM [falling, full curve].
Still for that read-out and setting: as for `COc1ccccc1OCCNCC(O)COc1cccc2[nH]c3ccccc3c12` (configuration not stated), the figure is 14.6 µM [falling, partial curve].
The same measure, in the same setting: as for `COc1cc2c(cc1OC)C1CC(=O)C(CC(C)C)CN1CC2` (configuration not stated), the figure is 20.6 µM [falling, single point].
